Binding data for seven substances are collected here from publication doi:10.1101/2023.07.19.549332.

What all share (experiment): affinity purification with mass spectrometry
The target of experiment [1] is PbWIG1-HA (HA-tagged P. berghei WIG1) (P. berghei).
In experiment [2] the target is PbCUL4-HA (triple HA-tagged P. berghei Cullin-4) (P. berghei).
Experiment [3] deals with PbDDB1-HA (HA-tagged P. berghei DDB1) (P. berghei).
For experiment [4], the target named is PfCUL4-HA (HA-tagged P. falciparum Cullin-4) (P. falciparum) (UniProt C6KTD3).

These are yes or no findings as the source states them, for the method shown. Binding seen in cells or lysates may run through a third protein. A yes stands for co-enrichment or nearness to the bait. Other partners may have been found.

Turning to “P. berghei DDB1 (from UniProt A0A509AK91)”, the binding entry in experiment [1] is “binds”.

Regarding “P. berghei RBX1 (from UniProt A0A509AI98)”, the binding entry in experiment [1] is listed as “binds”.

As for “P. berghei WD-repeat protein Important for Gametogenesis 1 (WIG1) (from UniProt A0A509AQC3)”, the binding entry in experiment [2] and in experiment [3] was “binds” each time.

Regarding “P. berghei ubiquitin carboxyl-terminal hydrolase PbUCH7 (from UniProt A0A509AEF7) (enzyme)”, in experiment [2], the binding result is reported as “binds”.

For the substance “P. falciparum WD-repeat protein Important for Gametogenesis 1 (WIG1) (from UniProt O97292)”, in experiment [4], the binding result is on record as “binds”.

For the substance “P. falciparum protein containing WD domains PF3D7_1410300 (from UniProt Q8ILZ2)”, the binding entry in experiment [4] is listed as “binds”.

In the case of “P. falciparum ubiquitin carboxyl-terminal hydrolase PfUCH7 (from UniProt Q8IBJ1) (enzyme)”, the binding result in experiment [4] is “binds”.
